# Screen size: about 1,400 compounds; about 30 (2%) were called active. Another 15% or so got no clear call; they are omitted. The call rests on the fitted dose curve; in most records, active means well fitted inhibition curve with a large enough effect; inconclusive means small, poorly fitted or top-dose-only effect; inactive means flat fitted curve, though single readings scatter. This is one part of the list.
# Assay: Firefly Luciferase Counterscreen for Inhibitors of ATXN expression
# Settings: luminescence; series mostly up to 57.5 µM; activity change, negative = inhibition: at the top concentration
# How it was run: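 Recombinant firefly luciferase at 10 nM final in 50 mM Tris pH 7.5, 10 mM MgCl2, 0.05% BSA, 0.01% Tween20 with substrate; compounds up to 57 uM final, 10 min room temperature, end-point luminescence. Buffer-only wells define 100% inhibition.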
# On the % scale 0 is the no-effect control and ±100 the full control effect.
row,SMILES,"activity change, negative = inhibition"
1,COc1ccc(/C(C)=N/NC(=O)c2cccc(S(=O)(=O)N3CCCC3)c2)c(O)c1,inactive: -15.8%
2,C=CCOC(=O)C1=C(C)NC(SCC)=C(C#N)C1c1ccc(Cl)cc1 (centres undefined),inactive: 3.44%
3,CN(C)CCNC(=O)c1ccc(Cl)c2cc3ccccc3nc12,inactive: -1.46%
4,Cc1ccc(C)c(N2CCN(C(=O)C34CC5CC(C3)CC(n3nnc(C)n3)(C5)C4)CC2)c1,inactive: 2.54%
5,CC(C)(C)OC(=O)CNC(=O)c1[nH]cnc1C(=O)Nc1ccc(CNC(=O)OC(C)(C)C)cc1,inactive: -2.29%
6,COc1ccc(CCNC(=O)c2cc3c(F)cccc3s2)cc1OC,inactive: -19.9%
7,Cc1ccc(S(=O)(=O)c2nc(S(C)(=O)=O)sc2N2CCCCC2C)cc1 (centres undefined),inactive: 0.578%
8,Cc1cc(C)cc(NS(=O)(=O)c2ccc3c(c2)c(=O)n(C)c(=O)n3C)c1,inactive: 0.0788%
9,CN(C)CCNC(=O)c1cccc2nc3cccc(F)c3nc12,inactive: -0.179%
10,O=C(c1ccoc1)N1CCN(c2cc(-c3ccco3)nc3cc(-c4ccccc4)nn23)CC1,inactive: -17.6%
11,CC1(C)CC(N2CCN(Cc3ccccc3)CC2)=CC(=[N+]2CCCCC2)C1,inactive: -8%
12,CCOC(=O)c1c(NC(=O)C(Sc2ccccc2)c2ccccc2)sc(C(=O)N(C)C)c1C (centres undefined),inactive: 3.94%
13,O=C(Oc1c(CN2CCOCC2)cc(Cl)c2cccnc12)c1cccs1,inactive: -2.8%
14,O=C(N/N=C/c1c(O)ccc2ccccc12)c1cccc(C(F)(F)F)c1,inactive: -10.1%
15,COC1=C(C)C(O)=C(C(=O)/C=C/c2ccccc2)C(=O)C1(C)C,inactive: -13.5%
16,Cc1onc(-c2ccccc2)c1C(=O)Nc1ccc(S(=O)(=O)NC(C)(C)C)cc1,inactive: 1.56%
17,C=CCOc1ccc(CNc2ccc3[nH]c(=O)[nH]c3c2)cc1OC,inactive: -18.3%
18,Clc1ccc(SCc2cc(N3CCOCC3)nc(-c3ccccn3)n2)cc1,inactive: -1.11%
19,CCN(CC)CCC(c1ccc2c(c1)OCO2)c1c(OC)cc(OC)c2c(-c3ccccc3)cc(=O)oc12 (centres undefined),inactive: -0.79%
20,CC(C)(C)n1nnnc1C(c1cccs1)N(Cc1ccc(Cl)cc1)CC1CCCO1 (centres undefined),inactive: -0.8%
21,NNC(=O)/C(=N/Nc1ccccc1)S(=O)(=O)c1ccc(Cl)cc1,inactive: -0.515%
22,COc1cc(OC)c(C(=O)C=Cc2ccc(OC)c(OC)c2)c(OC)c1,inactive: -3.15%
23,Cc1ccc(/C=C2\SC(=S)N(CCCC(=O)NC3CCCC3)C2=O)cc1,inactive: -2.42%
24,CCN(CC)S(=O)(=O)c1ccc(C(=O)Nc2ccc(Cc3ccncc3)cc2)cc1,inactive: -2.13%
25,CCCCn1c(SCC(=O)Nc2cc(NC(=O)c3ccco3)ccc2C)nc2ccccc2c1=O,inactive: -0.949%

row,SMILES,"activity change, negative = inhibition"
1,CN(C)CCNc1ccc(CO)c2sc3ccc(O)cc3c(=O)c12,inactive: -5.83%
2,Cc1ncc(CO)c(/C=N/Nc2ccc(C(F)(F)F)cn2)c1O,inactive: -0.531%
3,CC1(Cc2ccc(C(F)(F)F)o2)C(=O)Nc2ccc(-c3cccc(C(F)(F)F)c3)cc21 (centres undefined),inactive: -0.94%
4,CN1CCN(c2cc(-c3cc(O)c4ncccc4c3)ccn2)CC1,inactive: -1.23%
5,O=C(c1c(F)cccc1F)N1CCCC(c2nc(-c3ccc(Cl)cc3)no2)C1 (centres undefined),inactive: -10.2%
6,Cc1cc(C)c2c(N)c3cccc(C)c3nc2n1,inactive: -7.14%
7,CCc1nc2ccc(C(=O)Nc3cccc(NS(C)(=O)=O)c3)cn2c1N(C)CCCc1ccccc1,inactive: -2.96%
8,CC(C)n1cnc2c(N(C)c3ccccc3)nc(N(CCN(C)C)Cc3ccccc3)nc21,inactive: 0.895%
9,COc1ccc(C2=NN(C(=O)c3ccc(Cl)c([N+](=O)[O-])c3)C(c3ccccc3)C2)cc1 (centres undefined),inactive: -6.12%
10,CC(C)(CO)NCc1c(OCc2ccc(Cl)cc2)ccc2ccccc12,inactive: -4.07%
11,Cc1ccc2cc(C3C(C#N)=C(N)Oc4c3ccc3cccnc43)c(=O)[nH]c2c1 (centres undefined),inactive: -10.7%
12,CC1(C)c2[nH]c3ccccc3c2C[C@H]2C(=O)N(Cc3cccc(F)c3)C(=O)N21,inactive: 5.72%
13,NC(N)=N/N=C/c1ccc(Cl)c(Cl)c1,inactive: -1.22%
14,CCCN(CCC)S(=O)(=O)c1ccc(C(=O)Nc2nnc(-c3cc(OC)cc(OC)c3)o2)cc1,inactive: -11.8%
15,CC(=O)C(=Cc1cccc(C#N)c1)C(=O)c1ccccc1,inactive: -11.3%
16,CN(Cc1cnc2nc(N)nc(N)c2n1)c1ccc(C(=O)N[C@@H](CCC(=O)O)C(=O)O)cc1,inactive: -2.3%
17,CCN(CC)CCNc1ccc(CO)c2sc3ccccc3c(=O)c12,inactive: -1.5%
18,O=C(NC(Nc1ncc(S(=O)(=O)c2ccc([N+](=O)[O-])cc2)s1)(C(F)(F)F)C(F)(F)F)c1ccc(Cl)cc1,inactive: -10.1%
19,O[C@@H]1[C@@H](O)C=C2CCN3Cc4cc5c(cc4[C@H]1C23)OCO5 (some centres undefined),inactive: 2.3%
20,Cn1nnnc1Sc1ncnc2scc(-c3cccs3)c12,inactive: -10.6%
21,COCc1ccc(CN2CCC(C(=O)Nc3cccc(-c4cccc(Cl)c4)c3)CC2)o1,inactive: -9.74%
22,Cc1ccccc1NC(=O)CSc1n[nH]c(-c2ccccn2)n1,inactive: -6.35%
23,O=C(CCCN1C(=O)/C(=C/c2ccccc2Cl)SC1=S)NNC(=O)c1ccc(Cl)cc1,inactive: -3.94%
24,CC(=O)N1c2ccc(S(=O)(=O)N3CCC(C(=O)Nc4cccc(C(F)(F)F)c4)CC3)cc2CC1C (centres undefined),inactive: 0.917%

# An excerpt of these results, tab-delimited:
row	SMILES	activity change, negative = inhibition
7	CCc1nc2ccc(C(=O)Nc3cccc(NS(C)(=O)=O)c3)cn2c1N(C)CCCc1ccccc1	inactive: -2.96%
8	CC(C)n1cnc2c(N(C)c3ccccc3)nc(N(CCN(C)C)Cc3ccccc3)nc21	inactive: 0.895%
9	COc1ccc(C2=NN(C(=O)c3ccc(Cl)c([N+](=O)[O-])c3)C(c3ccccc3)C2)cc1 (centres undefined)	inactive: -6.12%

# — PubChem BioAssay AID1745846 (National Center for Advancing Translational Sciences (NCATS), 2022)
